Measurements reported in PubChem BioAssay AID1508588 (Peter MacCallum Cancer Centre, 2020).
Purpose: 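Knock-downs boosting vemurafenib effects on melanoma cell growth or lactate release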 (primary screen). Cell system: human WM266.4 melanoma cells (BRAF V600 mutant). Reagents: siRNA pool against human genes, 40 nM. Duration: 96 h from transfection to read-out. Treatment: vemurafenib 300 nM (about IC25), added 48 h after transfection, for 48 h; comparison arm got DMSO vehicle only. Detection: 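Cell gain (DAPI nuclei at end minus before drug, mean of two replicates) and medium lactate by absorbance per cell, both as ratio to non-targeting siRNA, also grouped into fold-change classes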. Direction: cell gain with vemurafenib: higher = more cell gain than with non-targeting siRNA; lactate per cell with vemurafenib: higher = more lactate made per cell. Active means: 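Enhancement is called by pairing each knock-down's vehicle-arm and drug-arm fold-change classes for viability or glycolysis; which class combinations qualify is not given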. Meaning of the calls: active = enhances vemurafenib effect; inactive = no enhancement seen.
Shown is a random part of about 18,000 reagents. 790 of them (4.4%) count as active. 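Calls rest on a combination of fold-change classes in drug and vehicle arms, not all shown here.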

target | cell gain with vemurafenib | lactate per cell with vemurafenib | outcome
UBE2Q1 | 0.48 | 0.98 | inactive
PTGS1 | 0.23 | 0.84 | inactive
PDCD6IP | 0.82 | 0.33 | active
OR51A4 | 0.6 | 1.31 | inactive
SLC6A9 | 0.43 | 0.6 | inactive
UNC93A | 1 | 0.7 | inactive
SYTL5 | 0.41 | 0.97 | inactive
RUFY1 | 0.92 | 1.12 | inactive
BACH1 | 0.22 | 2.77 | inactive
BCKDHA | 0.4 | -0.06 | inactive
FOXI2 | 0.36 | 1.27 | inactive
ARHGAP24 | 0.77 | 0.38 | active
MVP | 0.02 | 0.34 | active
RALGDS | 0.47 | 0.77 | inactive
TMEM63C | 0.64 | 0.2 | inactive
KLHL14 | 0.75 | 0.84 | inactive
STOX1 | 0.89 | 0.62 | inactive
TSLIG3C | 0.14 | 0.88 | active
SKOR2 | 0.98 | 0.72 | inactive
MAGEE2 | 0.56 | 1.48 | inactive
MRPL2 | 0.59 | 1.31 | inactive
R3HDM1 | 0.44 | 1.38 | inactive
CREBBP | 0.58 | 1.44 | inactive
MYH7B | 0.5 | 0.26 | inactive
TSC22D1 | 0.52 | 0.88 | inactive
FOS | 0.39 | 0.9 | inactive
OR1A1 | 0.67 | 0.78 | inactive
GDF6 | 0.68 | 0.74 | inactive
OR8J1 | 0.46 | 0.88 | inactive
G6PC2 | 0.74 | 0.9 | inactive
ABCC12 | 1.01 | 1 | inactive
SAFB2 | 0.56 | 0.72 | inactive
ADAM33 | 0.3 | 1.09 | inactive
ANKRD22 | 0.91 | 1.07 | inactive
RASGRP2 | 0.46 | 0.12 | active
GTF3C1 | 0.93 | 0.37 | inactive
CD276 | 0.75 | 1.48 | inactive

Next part; the last 4 above are carried over.
target | cell gain with vemurafenib | lactate per cell with vemurafenib | outcome
ANKRD22 | 0.91 | 1.07 | inactive
RASGRP2 | 0.46 | 0.12 | active
GTF3C1 | 0.93 | 0.37 | inactive
CD276 | 0.75 | 1.48 | inactive
CHD9 | 0.41 | 0.52 | inactive
ASTE1 | 0.96 | 0.3 | inactive
GSDME | 0.91 | 0.76 | inactive
SPACDR | 0.28 | 0.31 | inactive
TMEM101 | 0.58 | 1.07 | inactive
DLK2 | 1.12 | 0.49 | inactive
WDR81 | 0.5 | 1.11 | inactive
GOLM1 | 0.38 | 0.64 | inactive
SPATA17 | 0.48 | 0.86 | inactive
ADGRB2 | 0.29 | 0.71 | inactive
ZNF490 | 0.6 | 0.71 | inactive
ESX1 | 0.59 | 0.7 | inactive
AGMAT | 1.04 | 0.96 | inactive
KCNAB1 | 0.44 | 1.37 | inactive
HEMK2 | 0.78 | 0.85 | inactive
DDIT4L | 0.33 | 1.77 | inactive
AK8 | 0.6 | 1.57 | inactive
NRK | 1.08 | 0.94 | inactive
C5orf46 | 0.41 | 1.04 | inactive
OCA2 | 0.88 | 0.78 | inactive
